Assay results as given in the supplement of paper PMC12823440, “Inhibitors supercharge kinase turnover through native proteolytic circuits” (Nature, 2025).
Some of the results follow. The calls rarely recur for the same compound in another form.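 In K562 cells expressing nanoluciferase-fused kinases, luminescence was recorded at 4 h intervals between 2 and 18 h, normalized as percent of control with DMSO at 100% and a positive control at 0%. A significant (2 sigma) signal drop marks a time point as decreased. The authors' rule for a hit is not shown and takes in more than the number of time points.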

Amino acid sequences for entries named in this document (tags omitted). A change or cut given only in a name is not applied to a line headed by its entry.
UniProt Q9Y616: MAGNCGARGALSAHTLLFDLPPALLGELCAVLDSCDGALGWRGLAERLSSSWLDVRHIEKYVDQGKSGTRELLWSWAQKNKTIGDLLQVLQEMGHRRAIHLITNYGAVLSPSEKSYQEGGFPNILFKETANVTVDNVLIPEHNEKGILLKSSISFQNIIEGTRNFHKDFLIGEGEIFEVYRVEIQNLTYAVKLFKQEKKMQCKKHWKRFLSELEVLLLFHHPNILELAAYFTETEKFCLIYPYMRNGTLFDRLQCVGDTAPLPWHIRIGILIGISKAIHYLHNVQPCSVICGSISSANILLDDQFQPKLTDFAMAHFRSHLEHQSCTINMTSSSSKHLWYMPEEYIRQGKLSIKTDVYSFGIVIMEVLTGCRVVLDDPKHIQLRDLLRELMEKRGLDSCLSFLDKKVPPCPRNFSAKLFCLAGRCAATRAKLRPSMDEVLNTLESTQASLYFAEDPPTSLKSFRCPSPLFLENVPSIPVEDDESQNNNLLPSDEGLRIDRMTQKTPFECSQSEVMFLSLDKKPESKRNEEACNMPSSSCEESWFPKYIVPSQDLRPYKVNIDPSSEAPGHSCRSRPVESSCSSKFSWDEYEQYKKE
UniProt P23458: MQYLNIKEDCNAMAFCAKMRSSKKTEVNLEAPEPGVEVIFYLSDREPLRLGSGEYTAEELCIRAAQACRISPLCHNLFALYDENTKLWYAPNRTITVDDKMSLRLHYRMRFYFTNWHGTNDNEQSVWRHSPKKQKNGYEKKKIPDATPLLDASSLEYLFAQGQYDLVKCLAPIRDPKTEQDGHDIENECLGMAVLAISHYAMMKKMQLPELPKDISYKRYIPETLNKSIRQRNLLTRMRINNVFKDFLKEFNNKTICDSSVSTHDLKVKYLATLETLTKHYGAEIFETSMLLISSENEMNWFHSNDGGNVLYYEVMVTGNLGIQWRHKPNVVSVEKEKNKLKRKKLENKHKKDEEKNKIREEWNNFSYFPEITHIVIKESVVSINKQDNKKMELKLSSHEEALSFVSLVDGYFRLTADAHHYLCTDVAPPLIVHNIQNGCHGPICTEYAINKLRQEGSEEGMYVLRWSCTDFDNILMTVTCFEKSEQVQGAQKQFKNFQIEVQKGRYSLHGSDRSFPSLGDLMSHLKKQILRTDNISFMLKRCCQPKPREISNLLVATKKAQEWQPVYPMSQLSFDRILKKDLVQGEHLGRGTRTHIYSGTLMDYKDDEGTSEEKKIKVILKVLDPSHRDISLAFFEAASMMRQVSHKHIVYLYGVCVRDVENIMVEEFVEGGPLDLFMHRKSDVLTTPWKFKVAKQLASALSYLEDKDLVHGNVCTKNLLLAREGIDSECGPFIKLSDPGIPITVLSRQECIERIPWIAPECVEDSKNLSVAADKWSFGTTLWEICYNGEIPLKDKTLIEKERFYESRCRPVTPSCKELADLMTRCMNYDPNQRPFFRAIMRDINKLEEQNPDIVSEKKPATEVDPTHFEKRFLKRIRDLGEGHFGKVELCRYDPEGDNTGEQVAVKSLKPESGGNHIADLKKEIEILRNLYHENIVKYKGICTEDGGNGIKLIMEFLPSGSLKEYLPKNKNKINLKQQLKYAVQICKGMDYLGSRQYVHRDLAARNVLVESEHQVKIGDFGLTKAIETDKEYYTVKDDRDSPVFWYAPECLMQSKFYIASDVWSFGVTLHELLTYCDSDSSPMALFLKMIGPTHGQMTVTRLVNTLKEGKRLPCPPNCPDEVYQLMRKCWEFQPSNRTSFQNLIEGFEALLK
UniProt P06239: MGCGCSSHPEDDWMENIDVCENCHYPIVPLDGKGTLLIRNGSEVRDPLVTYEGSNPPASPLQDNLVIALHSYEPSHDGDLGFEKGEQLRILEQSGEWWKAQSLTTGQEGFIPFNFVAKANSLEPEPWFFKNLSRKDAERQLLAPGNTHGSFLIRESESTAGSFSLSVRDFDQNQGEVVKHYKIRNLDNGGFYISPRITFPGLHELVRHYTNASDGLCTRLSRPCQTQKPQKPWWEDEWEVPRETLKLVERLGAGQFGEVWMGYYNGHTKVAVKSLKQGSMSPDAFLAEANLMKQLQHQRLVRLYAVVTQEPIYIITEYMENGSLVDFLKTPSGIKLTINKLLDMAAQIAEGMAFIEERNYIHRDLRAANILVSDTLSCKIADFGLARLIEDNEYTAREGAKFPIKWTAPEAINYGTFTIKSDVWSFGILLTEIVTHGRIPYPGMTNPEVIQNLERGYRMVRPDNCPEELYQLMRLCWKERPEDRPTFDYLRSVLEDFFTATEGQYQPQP
UniProt P53667: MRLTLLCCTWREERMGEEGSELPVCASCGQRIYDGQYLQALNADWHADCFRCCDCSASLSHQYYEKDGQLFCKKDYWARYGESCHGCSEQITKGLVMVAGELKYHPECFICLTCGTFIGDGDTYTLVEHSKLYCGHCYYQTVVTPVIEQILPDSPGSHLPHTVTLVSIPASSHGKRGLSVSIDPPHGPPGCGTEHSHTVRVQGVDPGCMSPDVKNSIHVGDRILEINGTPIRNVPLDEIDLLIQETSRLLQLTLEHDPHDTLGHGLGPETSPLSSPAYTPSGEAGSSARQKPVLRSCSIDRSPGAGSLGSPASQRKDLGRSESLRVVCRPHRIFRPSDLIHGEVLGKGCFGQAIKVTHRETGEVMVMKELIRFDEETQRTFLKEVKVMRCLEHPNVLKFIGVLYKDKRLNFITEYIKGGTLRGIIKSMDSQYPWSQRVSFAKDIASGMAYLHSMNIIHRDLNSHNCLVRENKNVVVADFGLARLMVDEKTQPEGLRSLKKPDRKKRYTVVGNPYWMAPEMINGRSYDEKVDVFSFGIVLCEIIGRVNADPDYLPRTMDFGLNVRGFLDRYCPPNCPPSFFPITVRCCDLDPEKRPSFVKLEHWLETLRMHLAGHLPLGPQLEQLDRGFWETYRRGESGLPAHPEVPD
UniProt P53671: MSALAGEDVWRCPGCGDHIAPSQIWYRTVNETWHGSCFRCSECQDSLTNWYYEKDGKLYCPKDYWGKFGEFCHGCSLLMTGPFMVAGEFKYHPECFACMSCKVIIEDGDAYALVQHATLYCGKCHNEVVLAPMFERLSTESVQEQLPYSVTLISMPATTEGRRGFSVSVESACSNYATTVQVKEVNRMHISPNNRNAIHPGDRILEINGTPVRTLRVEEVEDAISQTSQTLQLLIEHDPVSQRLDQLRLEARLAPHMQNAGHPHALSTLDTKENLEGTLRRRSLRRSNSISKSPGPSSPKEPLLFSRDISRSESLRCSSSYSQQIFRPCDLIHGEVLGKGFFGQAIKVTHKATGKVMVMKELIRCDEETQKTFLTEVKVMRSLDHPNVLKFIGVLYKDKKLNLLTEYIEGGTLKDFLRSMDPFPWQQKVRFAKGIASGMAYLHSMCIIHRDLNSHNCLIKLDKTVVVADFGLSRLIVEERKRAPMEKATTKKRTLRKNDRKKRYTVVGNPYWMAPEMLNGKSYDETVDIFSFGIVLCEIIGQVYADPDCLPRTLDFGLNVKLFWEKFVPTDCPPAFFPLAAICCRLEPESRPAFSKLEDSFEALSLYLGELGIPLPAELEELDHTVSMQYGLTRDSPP
UniProt Q8IWU2: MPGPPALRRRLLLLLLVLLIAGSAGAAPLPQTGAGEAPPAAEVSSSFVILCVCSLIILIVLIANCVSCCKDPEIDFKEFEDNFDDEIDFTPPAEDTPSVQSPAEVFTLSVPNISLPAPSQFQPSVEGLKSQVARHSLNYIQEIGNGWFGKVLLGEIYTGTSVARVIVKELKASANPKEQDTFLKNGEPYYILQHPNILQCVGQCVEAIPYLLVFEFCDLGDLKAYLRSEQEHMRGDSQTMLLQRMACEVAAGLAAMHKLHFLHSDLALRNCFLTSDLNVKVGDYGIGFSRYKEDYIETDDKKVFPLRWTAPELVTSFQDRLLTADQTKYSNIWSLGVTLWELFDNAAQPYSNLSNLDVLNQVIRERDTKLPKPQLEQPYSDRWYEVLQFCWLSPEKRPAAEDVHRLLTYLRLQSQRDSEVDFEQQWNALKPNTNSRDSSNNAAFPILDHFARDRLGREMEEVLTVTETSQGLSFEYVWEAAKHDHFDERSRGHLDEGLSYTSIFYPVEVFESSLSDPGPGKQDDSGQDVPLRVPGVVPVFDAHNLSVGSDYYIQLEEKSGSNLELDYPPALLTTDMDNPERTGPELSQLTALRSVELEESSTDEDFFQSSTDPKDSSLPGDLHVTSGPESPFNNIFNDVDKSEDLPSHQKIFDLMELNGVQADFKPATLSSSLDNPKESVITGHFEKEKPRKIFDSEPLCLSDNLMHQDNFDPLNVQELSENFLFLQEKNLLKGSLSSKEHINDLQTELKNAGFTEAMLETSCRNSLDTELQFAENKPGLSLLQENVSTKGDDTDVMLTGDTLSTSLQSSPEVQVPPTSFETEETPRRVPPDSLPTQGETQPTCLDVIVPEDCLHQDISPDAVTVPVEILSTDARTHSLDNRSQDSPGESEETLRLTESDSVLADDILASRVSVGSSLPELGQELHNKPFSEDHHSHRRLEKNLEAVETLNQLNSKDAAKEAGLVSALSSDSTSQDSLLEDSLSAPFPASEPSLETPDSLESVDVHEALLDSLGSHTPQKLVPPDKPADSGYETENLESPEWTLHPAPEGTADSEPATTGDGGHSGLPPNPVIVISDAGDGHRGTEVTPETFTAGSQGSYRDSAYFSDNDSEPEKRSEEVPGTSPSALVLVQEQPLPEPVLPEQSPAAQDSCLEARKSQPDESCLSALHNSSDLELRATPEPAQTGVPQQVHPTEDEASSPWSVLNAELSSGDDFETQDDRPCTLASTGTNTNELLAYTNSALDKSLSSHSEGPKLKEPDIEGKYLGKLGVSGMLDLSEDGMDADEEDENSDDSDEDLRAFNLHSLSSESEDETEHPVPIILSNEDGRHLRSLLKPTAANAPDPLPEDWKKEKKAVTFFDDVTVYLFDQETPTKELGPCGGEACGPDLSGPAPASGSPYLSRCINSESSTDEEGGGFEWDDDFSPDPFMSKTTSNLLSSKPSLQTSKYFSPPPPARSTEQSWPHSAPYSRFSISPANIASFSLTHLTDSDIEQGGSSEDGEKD
UniProt P07948: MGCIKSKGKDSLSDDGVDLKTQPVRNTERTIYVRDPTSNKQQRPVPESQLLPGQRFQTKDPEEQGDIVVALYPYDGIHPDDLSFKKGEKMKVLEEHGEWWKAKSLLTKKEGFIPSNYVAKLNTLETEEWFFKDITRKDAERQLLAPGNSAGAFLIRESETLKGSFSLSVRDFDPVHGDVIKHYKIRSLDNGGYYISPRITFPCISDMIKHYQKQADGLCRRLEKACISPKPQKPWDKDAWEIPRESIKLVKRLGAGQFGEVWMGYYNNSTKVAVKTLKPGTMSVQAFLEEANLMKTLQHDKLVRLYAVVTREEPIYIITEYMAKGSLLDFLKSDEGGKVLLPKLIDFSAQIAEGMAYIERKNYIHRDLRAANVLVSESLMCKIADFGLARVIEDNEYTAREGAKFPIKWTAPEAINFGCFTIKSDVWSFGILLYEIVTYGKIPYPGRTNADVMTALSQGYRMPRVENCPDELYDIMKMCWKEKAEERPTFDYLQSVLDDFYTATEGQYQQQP
UniProt Q12851: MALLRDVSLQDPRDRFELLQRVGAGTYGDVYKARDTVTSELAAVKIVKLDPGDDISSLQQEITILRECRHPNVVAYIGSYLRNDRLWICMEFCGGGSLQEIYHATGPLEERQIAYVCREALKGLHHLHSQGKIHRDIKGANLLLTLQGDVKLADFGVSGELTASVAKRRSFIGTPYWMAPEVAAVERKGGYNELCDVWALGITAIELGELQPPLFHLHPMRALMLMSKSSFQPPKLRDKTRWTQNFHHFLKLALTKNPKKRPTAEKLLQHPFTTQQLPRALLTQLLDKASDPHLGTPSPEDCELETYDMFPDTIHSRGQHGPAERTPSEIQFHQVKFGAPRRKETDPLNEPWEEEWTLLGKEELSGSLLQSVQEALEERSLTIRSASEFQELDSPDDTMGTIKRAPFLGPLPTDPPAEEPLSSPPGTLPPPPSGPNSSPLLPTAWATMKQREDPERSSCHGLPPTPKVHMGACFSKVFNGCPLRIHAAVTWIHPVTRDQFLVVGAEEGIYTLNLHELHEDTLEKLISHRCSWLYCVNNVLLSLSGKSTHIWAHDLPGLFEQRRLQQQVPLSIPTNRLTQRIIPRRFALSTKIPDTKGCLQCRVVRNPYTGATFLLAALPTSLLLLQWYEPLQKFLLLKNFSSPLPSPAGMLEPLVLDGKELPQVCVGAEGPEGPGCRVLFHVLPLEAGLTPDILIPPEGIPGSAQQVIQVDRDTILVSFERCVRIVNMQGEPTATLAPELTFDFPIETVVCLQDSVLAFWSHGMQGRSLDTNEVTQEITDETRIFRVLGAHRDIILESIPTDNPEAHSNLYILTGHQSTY

Columns and labels:
Experiment in all cases: kinase-Nluc reporter destabilization hit call (1 = scored as downregulated) (binary); higher = compound decreases kinase abundance
Details in all cases: K562; 2-18 h
IRAK3 = IRAK3 (UniProt Q9Y616)
JAK1 = JAK1 (UniProt P23458)
LCK = LCK (UniProt P06239)
LIMK1 = LIMK1 (UniProt P53667)
LIMK2 = LIMK2 (UniProt P53671)
LMTK2 = LMTK2 (UniProt Q8IWU2)
LYN = LYN (UniProt P07948)
MAP2K1 = MAP2K1 (UniProt Q02750)
MAP2K2 = MAP2K2 (UniProt P36507)
MAP4K2 = MAP4K2 (UniProt Q12851)

Measured: kinase-Nluc reporter destabilization hit call

O=C(Nc1ccc(Cl)cc1)C1CCCN(C(=O)c2cc(C(F)(F)F)cc(C(F)(F)F)c2)C1 (stereo not given) (10 µM)
inactive: IRAK3 = 0 | JAK1 = 0 | LCK 0 | LIMK1 = 0 | LIMK2 = 0 | LMTK2 = 0 | LYN 0 | MAP2K1 = 0 | MAP2K2 = 0 | MAP4K2 = 0

CC(C)[C@H](CO)Nc1nc(Nc2cccc(Cl)c2)c2ncn(C(C)C)c2n1 [Purvalanol A] (10 µM)
inactive: IRAK3 = 0 | JAK1 = 0 | LCK 0 | LIMK1 = 0 | LIMK2 = 0 | LMTK2 = 0 | LYN 0 | MAP2K1 = 0 | MAP2K2 = 0 | MAP4K2 = 0

COc1cc2c(cc1O)C[C@H]1c3cc(O)c(OC)cc3CC[N@@+]1(C)C2 [Phellodendrine] (10 µM)
inactive: IRAK3 = 0 | JAK1 = 0 | LCK 0 | LIMK1 = 0 | LIMK2 = 0 | LMTK2 = 0 | LYN 0 | MAP2K1 = 0 | MAP2K2 = 0 | MAP4K2 = 0

O=C(c1cccc(Cl)c1F)N1CCN(Cc2cccc(Nc3nccs3)n2)CC1 (2.5 µM)
inactive: IRAK3 = 0 | JAK1 = 0 | LCK 0 | LIMK1 = 0 | LIMK2 = 0 | LMTK2 = 0 | LYN 0 | MAP2K1 = 0 | MAP2K2 = 0 | MAP4K2 = 0

Cc1c(Cl)cccc1S(=O)(=O)Nc1nc(NCCc2ccccc2)nc2c1CN(Cc1ccccc1)CC2 (2.5 µM)
inactive: IRAK3 = 0 | JAK1 = 0 | LCK 0 | LIMK1 = 0 | LIMK2 = 0 | LMTK2 = 0 | LYN 0 | MAP2K1 = 0 | MAP2K2 = 0 | MAP4K2 = 0

Cc1c(C)c(NCC(=O)N(C)C2CCN(Cc3ccc(C(N)=O)cc3)CC2)c(C)c(C)c1N (10 µM)
inactive: IRAK3 = 0 | JAK1 = 0 | LCK 0 | LIMK1 = 0 | LIMK2 = 0 | LMTK2 = 0 | LYN 0 | MAP2K1 = 0 | MAP2K2 = 0 | MAP4K2 = 0

COc1ccc2c3n(c(=NC(=O)c4cccnc4)nc2c1OC)CCN3 (2 µM)
inactive: IRAK3 = 0 | JAK1 = 0 | LCK 0 | LIMK1 = 0 | LIMK2 = 0 | LMTK2 = 0 | LYN 0 | MAP2K1 = 0 | MAP2K2 = 0 | MAP4K2 = 0

O=c1cc(-c2ccccc2)oc2cc(O[C@@H]3O[C@H](CO[C@@H]4O[C@H](CO)[C@@H](O)[C@H](O)[C@H]4O)[C@@H](O)[C@H](O)[C@H]3O)c(O)c(O)c12 [Oroxin B] (10 µM)
inactive: IRAK3 = 0 | JAK1 = 0 | LCK 0 | LIMK1 = 0 | LIMK2 = 0 | LMTK2 = 0 | LYN 0 | MAP2K1 = 0 | MAP2K2 = 0 | MAP4K2 = 0

Clc1ccc(C(c2ccc(Cl)cc2)[n+]2ccn(CC(OCc3ccc(Cl)cc3Cl)c3ccc(Cl)cc3Cl)c2)cc1 (stereo not given) [Calmidazolium chloride] (2.5 µM)
inactive: IRAK3 = 0 | JAK1 = 0 | LCK 0 | LIMK1 = 0 | LIMK2 = 0 | LMTK2 = 0 | LYN 0 | MAP2K1 = 0 | MAP2K2 = 0 | MAP4K2 = 0

Brc1ccc(CSc2nc3ccccc3o2)cc1 [BMP signaling agonist sb4] (10 µM)
inactive: IRAK3 = 0 | JAK1 = 0 | LCK 0 | LIMK1 = 0 | LIMK2 = 0 | LMTK2 = 0 | LYN 0 | MAP2K1 = 0 | MAP2K2 = 0 | MAP4K2 = 0

NC[C@@](O)(c1ccc(Cl)cc1)c1ccc(-c2cn[nH]c2)cc1 (10 µM)
inactive: IRAK3 = 0 | JAK1 = 0 | LCK 0 | LIMK1 = 0 | LIMK2 = 0 | LMTK2 = 0 | LYN 0 | MAP2K1 = 0 | MAP2K2 = 0 | MAP4K2 = 0

COc1cc(-c2cc(-c3ccc(N4CCNCC4)cc3)cnc2C)cc(OC)c1OC (10 µM)
inactive: IRAK3 = 0 | JAK1 = 0 | LCK 0 | LIMK1 = 0 | LIMK2 = 0 | LMTK2 = 0 | LYN 0 | MAP2K1 = 0 | MAP2K2 = 0 | MAP4K2 = 0

CC1CN(CC2CCN(Cc3ccccc3)CC2)C(=O)N(c2cccc(C(=N)N)c2)C1 (stereo not given) (10 µM)
inactive: IRAK3 = 0 | JAK1 = 0 | LCK 0 | LIMK1 = 0 | LIMK2 = 0 | LMTK2 = 0 | LYN 0 | MAP2K1 = 0 | MAP2K2 = 0 | MAP4K2 = 0

CC(Sc1nc2c(cnn2-c2cccc(Cl)c2)c(=O)[nH]1)C(N)=O (stereo not given) (10 µM)
inactive: IRAK3 = 0 | JAK1 = 0 | LCK 0 | LIMK1 = 0 | LIMK2 = 0 | LMTK2 = 0 | LYN 0 | MAP2K1 = 0 | MAP2K2 = 0 | MAP4K2 = 0

O=C1Nc2ccc(CN3C(=O)CSC3=O)cc2/C1=C/c1cc(CN2CCOCC2)c[nH]1 (10 µM)
inactive: IRAK3 = 0 | JAK1 = 0 | LCK 0 | LIMK1 = 0 | LIMK2 = 0 | LMTK2 = 0 | LYN 0 | MAP2K1 = 0 | MAP2K2 = 0 | MAP4K2 = 0

Sorted by molar mass (smallest number first): part of the list above.
NC[C@@](O)(c1ccc(Cl)cc1)c1ccc(-c2cn[nH]c2)cc1 (10 µM)
inactive: IRAK3 = 0 | JAK1 = 0 | LCK 0 | LIMK1 = 0 | LIMK2 = 0 | LMTK2 = 0 | LYN 0 | MAP2K1 = 0 | MAP2K2 = 0 | MAP4K2 = 0

COc1cc(-c2cc(-c3ccc(N4CCNCC4)cc3)cnc2C)cc(OC)c1OC (10 µM)
inactive: IRAK3 = 0 | JAK1 = 0 | LCK 0 | LIMK1 = 0 | LIMK2 = 0 | LMTK2 = 0 | LYN 0 | MAP2K1 = 0 | MAP2K2 = 0 | MAP4K2 = 0

O=C1Nc2ccc(CN3C(=O)CSC3=O)cc2/C1=C/c1cc(CN2CCOCC2)c[nH]1 (10 µM)
inactive: IRAK3 = 0 | JAK1 = 0 | LCK 0 | LIMK1 = 0 | LIMK2 = 0 | LMTK2 = 0 | LYN 0 | MAP2K1 = 0 | MAP2K2 = 0 | MAP4K2 = 0

The results go on.

COc1ccc(Br)cc1NC(=O)Nc1cccc2c1ccn2Cc1ccnc(N)c1 (2.5 µM)
inactive: IRAK3 = 0 | JAK1 = 0 | LCK 0 | LIMK1 = 0 | LIMK2 = 0 | LMTK2 = 0 | LYN 0 | MAP2K1 = 0 | MAP2K2 = 0 | MAP4K2 = 0

CCC(=O)Nc1cccc(Oc2nc(Nc3ccc(N4CCN(C)CC4)cc3OC)ncc2Cl)c1 (10 µM)
inactive: IRAK3 = 0 | JAK1 = 0 | LCK 0 | LIMK1 = 0 | LIMK2 = 0 | LMTK2 = 0 | LYN 0 | MAP2K1 = 0 | MAP2K2 = 0 | MAP4K2 = 0

C[C@@H](Nc1ncnc2[nH]c(-c3ccc(O)cc3)cc12)c1ccccc1 (2.5 µM)
inactive: IRAK3 = 0 | JAK1 = 0 | LCK 0 | LIMK1 = 0 | LIMK2 = 0 | LMTK2 = 0 | LYN 0 | MAP2K1 = 0 | MAP2K2 = 0 | MAP4K2 = 0

Cn1c2cc([S+](C)[O-])sc2c2cnn(Cc3cccc(N)c3)c(=O)c21 (stereo not given) (2.5 µM)
inactive: IRAK3 = 0 | JAK1 = 0 | LCK 0 | LIMK1 = 0 | LIMK2 = 0 | LMTK2 = 0 | LYN 0 | MAP2K1 = 0 | MAP2K2 = 0 | MAP4K2 = 0

O=C1CC[C@H](NC(=O)Cc2ccccc2)C(=O)N1 [Antineoplaston A10] (10 µM)
inactive: IRAK3 = 0 | JAK1 = 0 | LCK 0 | LIMK1 = 0 | LIMK2 = 0 | LMTK2 = 0 | LYN 0 | MAP2K1 = 0 | MAP2K2 = 0 | MAP4K2 = 0

COc1c(O)cc2oc(-c3ccc(O)cc3)cc(=O)c2c1O [Hispidulin] (10 µM)
inactive: IRAK3 = 0 | JAK1 = 0 | LCK 0 | LIMK1 = 0 | LIMK2 = 0 | LMTK2 = 0 | LYN 0 | MAP2K1 = 0 | MAP2K2 = 0 | MAP4K2 = 0

C=CC(=O)N1CCC[C@@H](n2nc(-c3ccc(Oc4ccccc4)cc3)c3c(N)n[nH]c(=O)c32)C1 [BTK inhibitor 17] (10 µM)
inactive: IRAK3 = 0 | JAK1 = 0 | LCK 0 | LIMK1 = 0 | LIMK2 = 0 | LMTK2 = 0 | LYN 0 | MAP2K1 = 0 | MAP2K2 = 0 | MAP4K2 = 0

O=Nc1c(-c2c(O)[nH]c3cc(Br)ccc23)[nH]c2ccccc12 [GSK 3 Inhibitor IX] (2.5 µM)
inactive: IRAK3 = 0 | JAK1 = 0 | LCK 0 | LIMK1 = 0 | LIMK2 = 0 | LMTK2 = 0 | LYN 0 | MAP2K1 = 0 | MAP2K2 = 0 | MAP4K2 = 0

Cc1ccc(NC(=O)Nc2cc(C(F)(F)F)ccc2F)cc1Nc1ccc2c(c1)NC(=O)/C2=C\c1ccc[nH]1 (2.5 µM)
inactive: IRAK3 = 0 | JAK1 = 0 | LCK 0 | LIMK1 = 0 | LIMK2 = 0 | LMTK2 = 0 | LYN 0 | MAP2K1 = 0 | MAP2K2 = 0 | MAP4K2 = 0

CC(Cc1ccc(O)c(O)c1)C(C)Cc1ccc(O)c(O)c1 (stereo not given) [Nordihydroguaiaretic acid] (2.5 µM)
inactive: IRAK3 = 0 | JAK1 = 0 | LCK 0 | LIMK1 = 0 | LIMK2 = 0 | LMTK2 = 0 | LYN 0 | MAP2K1 = 0 | MAP2K2 = 0 | MAP4K2 = 0

CNC(=O)c1ccc2c(C(=Nc3cccc(CN(C)C)c3)c3ccccc3)c(O)[nH]c2c1 [MEK inhibitor] (10 µM)
inactive: IRAK3 = 0 | JAK1 = 0 | LCK 0 | LIMK1 = 0 | LIMK2 = 0 | LMTK2 = 0 | LYN 0 | MAP2K1 = 0 | MAP2K2 = 0 | MAP4K2 = 0

C[C@H]1O[C@@H](O[C@H]2CC[C@@]3(C)[C@@H](CC[C@]4(C)[C@@H]3C=C[C@]35OC[C@@]6(CCC(C)(C)C[C@H]63)[C@H](O)C[C@]54C)[C@]2(C)CO)[C@H](O)[C@@H](O[C@@H]2O[C@H](CO)[C@@H](O)[C@H](O)[C@H]2O)[C@H]1O [Saikosaponin D] (2.5 µM)
inactive: IRAK3 = 0 | JAK1 = 0 | LCK 0 | LIMK1 = 0 | LIMK2 = 0 | LMTK2 = 0 | LYN 0 | MAP2K1 = 0 | MAP2K2 = 0 | MAP4K2 = 0

CO[C@H]1CC[C@H](N2C(=O)CNc3ncc(-c4ccc(C(C)(C)O)nc4)nc32)CC1 (2.5 µM)
inactive: IRAK3 = 0 | JAK1 = 0 | LCK 0 | LIMK1 = 0 | LIMK2 = 0 | LMTK2 = 0 | LYN 0 | MAP2K1 = 0 | MAP2K2 = 0 | MAP4K2 = 0

O=C(O)c1ccc(/C=C/S(=O)(=O)Cc2ccc(Cl)cc2)cc1 [Recilisib] (10 µM)
inactive: IRAK3 = 0 | JAK1 = 0 | LCK 0 | LIMK1 = 0 | LIMK2 = 0 | LMTK2 = 0 | LYN 0 | MAP2K1 = 0 | MAP2K2 = 0 | MAP4K2 = 0
